# Library compounds against nucleic acid targets

Calls as published in the ROBIN set (doi:10.1002/anie.202211358).

Targets, with sequences 5′ to 3′:
SAM-II: SAM-II riboswitch RNA pseudoknot, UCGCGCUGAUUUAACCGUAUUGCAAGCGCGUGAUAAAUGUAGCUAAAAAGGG. About 200 hits among about 21,000 compounds.
PreQ1: PreQ1 riboswitch RNA pseudoknot, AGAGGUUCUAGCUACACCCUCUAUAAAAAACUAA. From B. subtilis. About 170 hits among about 24,000 compounds.
TPP: TPP riboswitch RNA three-way junction, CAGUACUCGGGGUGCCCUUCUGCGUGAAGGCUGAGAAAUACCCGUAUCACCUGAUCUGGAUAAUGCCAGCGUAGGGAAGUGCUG. About 160 hits among about 24,000 compounds.

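Compounds were printed on reactive glass slides in duplicate spots, a dye-labelled oligonucleotide was laid over them, and the fluorescence left after washing was read. For the PreQ1, TPP and SAM-II riboswitches the laboratory earlier reported (doi:10.1038/s41467-019-09493-3) 1 µM RNA, 2 h, and a rule that included a mean Z-score above 3 (spot signal-to-noise against the whole library), a score well above that on a control array, and duplicate spots agreeing (coefficient of variation under 100). The data file gives only the calls; its cut-offs may differ, and compounds hitting several targets are kept. These are primary screening calls, not affinities; a compound without a hit may have attached poorly or may still bind in solution.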 A compound is marked hit if it was called a hit and none if it was screened but was not. Compounds were drawn at random from those tested, without regard to their results. A target missing from an entry has no call listed here. A dash means that no call is listed here.

| # | SMILES | SAM-II | PreQ1 | TPP |
|---|---|---|---|---|
| 1 | `COc1cc(C)sc1C(=O)N1CCc2c(c(C(=O)O)nn2CCO)C1` | none | none | none |
| 2 | `Cc1c(C(=O)c2ccccc2)oc2cc(N)ccc12` | none | none | none |
| 3 | `Cc1cc(C)c(C)c(Cn2c(CCNC(=O)CCCO)nc3ccccc32)c1C` | - | none | none |
| 4 | `CN(C)c1ccc(/C=C/C(=O)c2cc(Cl)ccc2O)cc1` | none | none | none |
| 5 | `Cn1ccc2c(-c3cc(NCCO)nc(N)n3)ccnc21` | none | none | none |
| 6 | `Cc1nc(-c2cc3cccc(C)c3nc2NCc2ccc(F)cc2)no1` | - | none | none |
| 7 | `O=C(O)COCCN1CCN(C(c2ccccc2)c2ccc(Cl)cc2)CC1` (centres unmarked) | none | none | none |
| 8 | `C[C@@H]1CCO[C@H]2Cn3cc(C(=O)NCc4ccc(F)cc4F)c(=O)c(O)c3C(=O)N12` | none | none | none |
| 9 | `Cn1cc(-c2c(-c3ccccc3)ncn2CCCN(CCO)CCO)cn1` | none | none | none |
| 10 | `N[C@@H]1CCN(c2ncc(C(=O)O)cc2Cl)C[C@H]1O` | none | none | none |
| 11 | `Cc1ccc(NC2c3ccccc3C(=O)N2c2ccc(Cl)cn2)cc1` (centres unmarked) | none | none | none |
| 12 | `CCC(O)c1nc2ccccc2n1Cc1ccc(Cl)cc1Cl` (centres unmarked) | none | none | none |
| 13 | `CCOCC(O)Cn1nc([N+](=O)[O-])nc1[N+](=O)[O-]` (centres unmarked) | none | none | none |
| 14 | `CC12CCC3C(CC=C4CC(O)CCC43C)C1C/C(=C\N1CCCC1)C2=O` (centres unmarked) | none | none | none |
| 15 | `CN(CCO)C[C@@H]1CN(C(=O)Cc2nc3cc(Cl)ccc3[nH]2)C[C@@H]1CO` | none | none | none |
| 16 | `CCC(=O)OC1CCC2C3CCC4=CC(=O)CC[C@@]4(C)C3CC[C@]12C` (some centres unmarked) | none | none | none |
| 17 | `CCCc1cc(C(N)=S)ccn1` | none | none | none |
| 18 | `CCc1ccc(CN2CC[C@@H](c3sccc3C)[C@H](O)C2)nc1` | none | none | none |
| 19 | `COCc1cc(C)nc2sc(C(=O)Nc3ccccc3Cl)c(N)c12` | none | none | none |
| 20 | `S=C(Nc1ccccc1)Nc1nccs1` | none | none | none |
| 21 | `CC(=O)C1C=CC(C)(C(=O)O)C2C=C(C)C(=O)C(C)(O)C12` (centres unmarked) | none | none | none |
| 22 | `CC1=C(c2cccc(Br)c2)S(=O)(=O)N=C1Nc1ccc(CN2CCC(C)CC2)cc1` | - | none | none |
| 23 | `COc1ccc(-c2cc(CNCC3=NOC(Cc4cc5c(c(OC)c4OC)OCO5)C3)on2)cc1` (centres unmarked) | none | none | none |
| 24 | `O=C(c1ccccc1)c1ccc2n1CCC2C(=O)O` (centres unmarked) | none | none | none |
| 25 | `CSc1nc(NC2CCCC2)c(C#N)c(-c2ccccc2)n1` | - | none | none |
| 26 | `CCCCNc1nc2c(c(=O)n(Cc3ccc(Cl)cc3)c(=O)n2C)n1C` | - | none | none |
| 27 | `Nc1cc2[nH]c(=O)[nH]c2cc1Br` | none | none | none |
| 28 | `CCOc1ncccc1C(=O)N(Cc1ccccn1)C(CC)CO` (centres unmarked) | none | none | none |
| 29 | `CC(C)Nc1nc(N(C)c2ccccc2)nc(-n2ccnc2)n1` | none | none | none |
| 30 | `Cc1nc(C(C)C)sc1C(=O)NCC(CO)Cc1ccco1` (centres unmarked) | none | none | none |
| 31 | `CCn1c(N)nc2cc(C(=O)NCc3cnn(Cc4ccccc4)c3)cnc21` | none | none | none |
| 32 | `Cn1cc(-c2cc(-c3ccco3)nc(N)c2C#N)c(-c2ccccc2)n1` | none | none | none |
| 33 | `COCCN1CCC(C(=O)N2CCNC(c3ccccc3)C2)CC1` (centres unmarked) | none | none | none |
| 34 | `N#Cc1cnn2c(NC3CCCCCCC3)c(-c3ccccc3F)[nH]c12` | - | none | none |
| 35 | `Cc1ccc(-c2nc3nc(C)cc(NCCO)n3n2)cc1` | - | none | none |
| 36 | `CCOC(=O)[C@]12CCCN[C@@H]1CCN(C(=O)c1cnn3ccccc13)C2` | none | none | none |
| 37 | `CNCc1cc(COC)[nH]n1` | none | none | none |
| 38 | `CCCc1nc(-c2cc3cccc(C)c3nc2NCCc2ccccn2)no1` | - | none | none |
| 39 | `Nc1c(C(=O)NCCc2ccccc2)nnn1Cc1ccccc1` | none | none | none |
| 40 | `N[C@@H](Cc1c[nH]cn1)C(=O)N1CCC(OCc2cccnc2)CC1` | none | none | none |
| 41 | `CC(C)COC(=O)NC[C@@H]1CCN(C(=O)c2ccoc2)C[C@H]1O` | none | none | none |
| 42 | `CN(C)S(=O)(=O)N1CC[C@@H](c2ccc3ccccc3c2)[C@H](O)C1` | none | none | none |
| 43 | `O=C(CC(c1ccccc1)c1ccccc1F)NCCc1noc(CO)n1` (centres unmarked) | none | none | none |
| 44 | `C[C@@H]1CN(Cc2ccc(F)cc2)[C@@H](C)CN1C(=O)c1cc2c(C(=O)C(=O)N(C)C)cn(C)c2cc1Cl` | none | none | none |
| 45 | `CNc1ncc(CN(C)C(=O)[C@@H]2C[C@@H](NC(=O)c3cccs3)CN2)cn1` | none | none | none |
| 46 | `Cc1ccc(S(=O)(=O)Nc2nc3ccccc3nc2Nc2ccc3nsnc3c2)cc1` | none | none | none |
| 47 | `Cc1ccc(NC(=O)c2sc3nc4c(cc3c2N)CCCCC4)cc1` | none | none | none |
| 48 | `CC(N)C12CC3CC(CC(C3)C1)C2` (centres unmarked) | none | none | none |
| 49 | `CC(C)Oc1ccc(CNCC2(O)CCOC(C)(C)C2)cc1` (centres unmarked) | none | none | none |
| 50 | `CCCCC[C@H](O)/C=C/[C@@H]1[C@@H](C/C=C\CCCC(=O)O)[C@@H](O)C[C@H]1O.NC(CO)(CO)CO` | none | none | none |

For reference, 3 entries once more:

{"smiles": "Cc1nc(-c2cc3cccc(C)c3nc2NCc2ccc(F)cc2)no1", "PreQ1": "none", "TPP": "none"}
{"smiles": "O=C(c1ccccc1)c1ccc2n1CCC2C(=O)O", "stereo": "centres unmarked", "SAM-II": "none", "PreQ1": "none", "TPP": "none"}
{"smiles": "CCCCNc1nc2c(c(=O)n(Cc3ccc(Cl)cc3)c(=O)n2C)n1C", "PreQ1": "none", "TPP": "none"}